Data taken from ChEMBL document CHEMBL3988442, “University of Dundee, Small-Polar-MMV Screening Library” (2021).

Protein sequences, listed by entry. Tags and fused reporters are not part of them.
UniProt E9BF75, entry or part of it: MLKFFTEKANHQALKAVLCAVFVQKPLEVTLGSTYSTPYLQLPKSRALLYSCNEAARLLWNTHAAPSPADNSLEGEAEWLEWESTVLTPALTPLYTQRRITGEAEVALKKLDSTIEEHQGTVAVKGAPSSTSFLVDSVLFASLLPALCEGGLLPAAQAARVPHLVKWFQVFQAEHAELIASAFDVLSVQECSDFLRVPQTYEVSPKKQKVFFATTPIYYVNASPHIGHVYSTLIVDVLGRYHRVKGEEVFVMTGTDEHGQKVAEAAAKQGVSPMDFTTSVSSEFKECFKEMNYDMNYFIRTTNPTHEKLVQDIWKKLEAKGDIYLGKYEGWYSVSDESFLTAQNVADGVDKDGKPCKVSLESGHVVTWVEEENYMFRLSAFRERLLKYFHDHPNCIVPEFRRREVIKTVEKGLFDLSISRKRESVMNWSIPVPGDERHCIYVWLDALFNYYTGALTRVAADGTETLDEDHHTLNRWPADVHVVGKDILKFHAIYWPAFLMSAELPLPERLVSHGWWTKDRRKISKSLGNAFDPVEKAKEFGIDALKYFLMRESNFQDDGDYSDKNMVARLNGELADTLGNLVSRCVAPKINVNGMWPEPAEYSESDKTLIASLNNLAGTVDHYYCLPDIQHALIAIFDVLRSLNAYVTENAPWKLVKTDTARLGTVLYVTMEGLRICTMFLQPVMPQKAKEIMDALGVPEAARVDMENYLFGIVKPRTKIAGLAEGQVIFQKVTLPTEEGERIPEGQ

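Methionyl-tRNA synthetase (putative), Leishmania donovani (UniProt E9BF75). Primary screen of methionyl-tRNA synthetase; the read-out is not stated. The test concentration is not given. Values are per cent inhibition. Of about 68,000 compounds tested this way, about 24 (0.035%) reached 50% or more in at least one test.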

All values are in %.
The controls that fix the scale are not given in the record; negative values are as filed.
The compounds are a random part of those screened.

Cc1ccc(C(=O)NCc2ccnc(N3CCN(C)CC3)c2)cn1 read 8.424%. For CC(C)c1nccc(N2CCN(CC(=O)N3CCOCC3)CC2)n1 the result was 13.71%. N#Cc1ccc(C(=O)N2CCCSCC2CN2CCCC2)cc1 (stereo not drawn) read 13.91%. For N#Cc1ccc(CN2CCN(c3cncc(Cl)n3)CC2=O)cc1 the result was 13.18%. Cc1ccc(Cl)cc1N1CCC(CNC(=O)CC(F)(F)F)C1 (stereo not drawn) read 4.294%.

With CC(=O)c1ccc(-c2cnn(CC(=O)Nc3cc(C)nn3C)c2)nc1 the screen gave 12.54%. O=c1ccn(Cc2nc(-c3ccccc3F)cs2)c(=O)[nH]1 gave 15.71%. C=Cn1ncc(CN2C[C@@H]3C[C@@H](O)CN3C[C@H]2Cc2ccccc2)c1C gave 19.77%. Result for Cc1nc(N2CC[C@@H](c3ccc4ccccc4c3)[C@H](O)C2)no1 was 8.125%. For CC(=O)CC(C)(C)NC(=O)CCN(C)Cc1ccc(Cl)s1 the result was 13.69%.

With CNC(=O)[C@@]12CCCN(c3ncccn3)[C@@H]1CN(C(=O)NC(C)C)C2 the screen gave 7.843%. Result for OC1CCN(C2CCN(c3ccc(Cn4ccnc4)cn3)CC2)CC1 was 8.889%. Cc1ccc(S(=O)(=O)N2CCC(S(C)(=O)=O)CC2)cc1C read 10.14%. COc1ccccc1-c1cc(C(F)(F)F)c2c(C)nn(CC(=O)O)c2n1 read 4.545%. With Cc1cc(C(F)(F)F)nn1CCCNC(=O)C1CCCO1 (stereo not drawn) the screen gave 10%.

With COc1cc(CN(CCCN(C)C)Cc2ccccn2)cc2c1OCO2 the screen gave 22.03%. For CCc1ccc(C2COCCN2C(=O)Nc2cc(C)on2)o1 (stereo not drawn) the result was 19.51%. Cc1ccccc1C1(C(=O)NCCN2CCOCC2)CCOCC1 gave 10.72%. For CCNC(=O)N(C)C(c1cccnc1)C(C)C (stereo not drawn) the result was 10.14%. For COCc1noc(-c2ccc(N(C)Cc3ncccc3C)nc2)n1 the result was 6.02%.

N#Cc1ccccc1CN1CCCC(c2nccn2CC2CC2)C1 (stereo not drawn) gave 2.994%. CCc1ccccc1NC(=O)NCc1nnc(SC)n1C gave 14.33%. Result for Cc1nn(C)cc1S(=O)(=O)N(C)[C@@H]1CCC[C@@H](n2ccnc2)[C@@H]1O was 6.667%. CN(Cc1ccccn1)C(=O)c1nn(C)c2c1CCN(CC1CC1)C2 gave 20.29%. O=C(N[C@@H]1CN(c2ncccn2)C[C@@H]2CCCO[C@@H]21)c1ccnnc1 gave 14.81%.

With O=C1CC2(CCN(Cc3cccs3)C2)CN1c1cccc(F)c1 (stereo not drawn) the screen gave 7.216%. For CCC1(C(=O)O)CCCN(C(=O)c2ccc(N3CCN(C)CC3)cc2)C1 (stereo not drawn) the result was 14.63%. COCC1c2c(cnn2C)CCN1Cc1ccc(F)cc1 (stereo not drawn) gave 16.19%. Cc1ccccc1CN(CCN(C)C)C(=O)c1ccc2nccn2c1 gave 14.4%. Result for CNC(=O)c1cn(C(C)(C)C)c2ncccc12 was 6.389%.

For CN(C(=O)c1ccc(Cl)cc1)C1CCN(c2ccccn2)CC1 the result was 20.44%. For COc1ncnc(N)c1CNCC(C)SC (stereo not drawn) the result was 5.986%. COC(=O)c1cc(C(=O)N2CCCCC2C)n(-c2ccccc2)n1 (stereo not drawn) gave 7.65%. For CCS(=O)(=O)NCCN1CCN(C(C#N)c2ccccc2)CC1 (stereo not drawn) the result was 14.4%. With Cc1ncnc2c1CCN(c1cc(C(F)(F)F)ncn1)CC2 the screen gave 7.95%.

With Cc1ccc(CN(Cc2ccccn2)C(=O)C2CCCCCN2C)s1 (stereo not drawn) the screen gave 4.323%. CC(C)=CCn1ncc(N2CCOCC2)cc1=O read 13.99%. Cc1cnn(CCNCc2ccccc2F)c1 gave 13.02%. CCN1CCCC1CNCc1cc2cc(C)c(C)cc2[nH]c1=O (stereo not drawn) gave 12.07%. COCc1c(C(=O)NC2CCCC2)nnn1-c1ccc(C)cc1 read 7.343%.

CN(C)c1ccc(C(=O)Nc2ccn(Cc3ccccn3)n2)cn1 gave 1.961%. COc1ccc(NC(=O)c2ccco2)c(N2CCN(C(C)=O)CC2)n1 gave 13.19%. Result for Cc1cc(N2CCSCC2)ccc1NC(=O)N(CCO)C1CC1 was 8.424%. With Fc1ccc(C2CCCN2Cc2nc(Cc3ccccc3F)no2)cc1 (stereo not drawn) the screen gave 7.357%.